Results published in paper PMC8998196, “A Second Gamma-Glutamylpolyamine Synthetase, GlnA2, Is Involved in Polyamine Catabolism in Streptomyces coelicolor” (International Journal of Molecular Sciences, 2022).
For at least one entry, the source does not settle the construct or the ends of the probe. A negative result means that nothing was seen under these conditions. Weaker means in comparison with the reference protein, sequence or condition of that experiment.

Protein sequences, listed by entry. Tags and fused reporters are not part of them. Lines headed by an entry give the natural chain unless they say otherwise; changes in a name come on top.
UniProt Q05943: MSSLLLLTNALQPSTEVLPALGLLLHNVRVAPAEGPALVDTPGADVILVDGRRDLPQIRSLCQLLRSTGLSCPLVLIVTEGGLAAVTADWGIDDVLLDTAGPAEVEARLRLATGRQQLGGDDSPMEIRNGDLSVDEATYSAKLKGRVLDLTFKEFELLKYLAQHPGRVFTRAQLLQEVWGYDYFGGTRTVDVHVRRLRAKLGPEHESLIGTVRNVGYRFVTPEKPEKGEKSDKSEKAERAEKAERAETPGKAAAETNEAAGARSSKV

Molecular target: Strep-GlnR (non-acetylated) (Streptomyces coelicolor) (UniProt Q05943)
Test: EMSA
Conditions: EMSA: Cy5-labelled about 250 bp PCR fragments with 0.5-2 ug protein at RT, excess unlabelled specific or non-specific DNA as specificity control, recombinant protein, protein details: N-terminal StrepII-tag, label: Cy5, probe letters rebuilt from the primers and the genome

AGCCAGTGGCGATAAGCACGTGTCGGCTCCTTCGCGCGTGCGCCGTCCGTCGCACACCATTGTGCCGTCCGGTGATCACCCTGTCCGGGTTTCGCCGGATGTGCGCACGACGCGGTGAAGGCCGCCCGGGGTCAGTCCATGGTGGTCGGCTGCGGGGAGGGGGTCCCGCCGTCCAGGACGGTCTTGAGGCGCTCGGTGCCCTGGCGCACCGCCTGTTCGACCGAGTCCGTCTGCCCGCCGTCGAGGCCCCCGCCCATGACGGTGACGGCCTTATCGCCACTGGCT (double strand) [glnA3 promoter region]
binding result (conditions equivalent to glnA2, data not shown): no binding

AGCCAGTGGCGATAAGCATCTTCCGCTTCCCCATCCTTGCTGGTCAGGCCGCCTGTCTCCGGTACGGCGGGAGGCGGTCGGGCACTTGAGCATCACACCACAGCGCCGTTACGTGTGCGTTGCGGACCTCCGTCGGCCGGCCCACCCCGTGACCGCAGCGTAGAGGCCACCTGTTCGATCGGGCCATTCCGGGGATCGGGCCGGGACGGATCCTGTGCCCGCCCTACGAAGGACGGGCCCCGCGCCATTACGATCAGCGGACCTCACGGCTTATCGCCACTGGCT (double strand) [glnA2 promoter region]
binding result (shift only at higher protein amounts, weaker than acetylated GlnR): binds more weakly
